# These are yes or no findings as the source states them, for the method shown. Some entries that bind do so weakly or less than the wild type.
# The chains behind the UniProt entries cited, without tags or fusion partners. Residues count along the entry.
# UniProt P02769, residues 25-607: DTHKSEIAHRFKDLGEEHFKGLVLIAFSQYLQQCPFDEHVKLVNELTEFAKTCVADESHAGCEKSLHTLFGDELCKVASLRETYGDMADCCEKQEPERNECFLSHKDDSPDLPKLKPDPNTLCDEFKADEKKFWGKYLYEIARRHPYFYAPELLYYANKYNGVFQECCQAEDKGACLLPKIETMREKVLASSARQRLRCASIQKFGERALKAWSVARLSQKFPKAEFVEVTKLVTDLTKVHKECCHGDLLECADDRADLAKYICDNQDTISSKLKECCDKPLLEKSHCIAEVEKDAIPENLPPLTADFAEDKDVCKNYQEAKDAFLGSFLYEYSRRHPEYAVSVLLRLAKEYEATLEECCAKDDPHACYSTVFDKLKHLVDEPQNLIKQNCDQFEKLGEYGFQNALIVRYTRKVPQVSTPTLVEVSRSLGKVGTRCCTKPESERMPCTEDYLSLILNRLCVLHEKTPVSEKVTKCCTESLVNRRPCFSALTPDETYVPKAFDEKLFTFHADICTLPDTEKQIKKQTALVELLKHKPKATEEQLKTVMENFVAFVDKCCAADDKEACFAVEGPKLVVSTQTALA
# T1: Recombinant human CD40L (human, UniProt P29965 108-261, limits assumed)
# T1 construct: also called CD40 ligand
# T1 sequence (looked up): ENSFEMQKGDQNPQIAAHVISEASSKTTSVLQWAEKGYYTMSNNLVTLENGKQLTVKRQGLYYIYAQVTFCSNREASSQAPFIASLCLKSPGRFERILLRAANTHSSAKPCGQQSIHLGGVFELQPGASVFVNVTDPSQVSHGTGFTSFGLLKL
# Target: BSA (bovine) (UniProt P02769)
# Assay: same ELISA with control BSA antigen on the plate in place of HSA; detection with biotinylated CD40L and streptavidin-HRP
row,Binder,binding
1,DOM7h-26-DOM-24 (bispecific antibody) LEKREVQLLESGGGLVQPGGSLRLSCTASGFTFDEYNMSWVRQAPGKGLEWVSTILPHGDRTYYADSVKGRFTISRDNSKNTLYLQMNSLRAEDTAVYYCAKQDPLYRFDYWGQGTLVTVSSAAAEVQLLESGGGLVQPGGSLRLSCAASGFTFSNYQMAWVRQAPGKGLEWVSSITSEGGSTYYADSVKGRFTISRDNSKNTLYLQMNSLRAEDTAVYYCAKPGKNFDYWGQGTLVTVSS,no binding (tested: 1/2 dilution (concentration not given))

# Target: T1, Recombinant human CD40L
# Assay: sandwich ELISA for simultaneous binding: HSA coated on the plate, doubling dilutions of the dimer, detection with 5 nM biotinylated CD40L and streptavidin-HRP
row,binding,Binder
1,binds,DOM7h-26-DOM-24 (bispecific antibody) LEKREVQLLESGGGLVQPGGSLRLSCTASGFTFDEYNMSWVRQAPGKGLEWVSTILPHGDRTYYADSVKGRFTISRDNSKNTLYLQMNSLRAEDTAVYYCAKQDPLYRFDYWGQGTLVTVSSAAAEVQLLESGGGLVQPGGSLRLSCAASGFTFSNYQMAWVRQAPGKGLEWVSSITSEGGSTYYADSVKGRFTISRDNSKNTLYLQMNSLRAEDTAVYYCAKPGKNFDYWGQGTLVTVSS

# Target: T1, Recombinant human CD40L
# Assay: CD40L/CD40-Fc receptor binding assay
row,binding,Binder
1,binds,DOM.173 (protein) VL: DIQMTQSPSSLSASVGDRVTITCRASQKIKNRLAWYQQKPGKAPKLLIYEVSHLQSGVPSRFSGSGSGTDFTLTIGSLQPEDFATYYCQQRRQSPYTFGQGTKVEIKR
2,binds,DOM.171 (protein) VL: DIQMTQSPSSLSASVGDRVTITCRASQSIESNLEWYQQKPGKAPKLLIYNASELQSGVPSRFSGSGSGTDFTLTISSLRPEDFATYYCQQYDQWPTTFGQGTKVEIKR
3,binds,DOM.165 (protein) VL: DIQMTQSPSSLSASVGDRVTITCRASQSISTDLEWYQQKLGKAPKLLIYDASLLQSGVPSRFSGSGSGTDFTLTISSLQPEDFATYYCQQYSSLPVTFGQGTKVEIKR
4,binds,DOM.168 (protein) VL: DIQMTQSPSSLSASVGDRVTITCRASQWIHTDLEWYQQKPGKAPKLLIYDGSMLQSGVPSRFSGSGSGTDFTLTISSLQPEDFATYYCQQYSVSPVTFGQGTKVEIKR
5,binds,DOM.169 (protein) VL: DIQMTQSPSSLSASVGDRVTITCRASQSIDNNLEWYQQKPGEAPKLLIYDGSLLQSGVPSRFSGSGSGTDFTLTISSLQPEDFATYYCQQYHLHPVTFGQGTKVEIKR
6,binds,DOM.167 (protein) VL: DIQMTQSPSSLSASVGDRVTITCRASQNIHTNLEWYQQKPGKAPKLLIYDGSMLQSGVPSRFSGSGSGTDFTLTISSLQPEDFATYYCQQYSANPVTFGQGTKVGIKR
7,binds,DOM.166 (protein) VL: DIQMTQSPSSLSASVGDRVTITCRASQPITTSLEWYQQKPGKAPKLLIYDASMLQSGVPSRFSGSGSGTDFTLTISSLQPEDFATYYCQQYWVTPVTFGQGTKVEIKR
8,binds,DOM.170 (protein) VL: DIQMTQSPSSLSASVGDRVTITCRASQDIDTNLEWYQQKPGEAPKLLIYDRSTLQSGVPSRFSGSGSGTDFTLTISSLQPEDFATYYCQQYDSYPVTFGQGTKVEIKR
9,binds,DOM.174 (protein) VL: DIQMTQSPSSLSASVGDRVTITCRASEDIGEELFWYQQKPGKAPKLLIYSASTLQSEVPSRFSGSGSGTDFTLTISSLQHEDFATYYCQQVYEWPYTFGQGTKVEIKR
10,binds,DOM.172 (protein) VL: DIQMTQSPSSLSASVGDRVTITCRASQAIGNTLRWYQQKPGKAPKLLIYLSSRLQSGVPSRFSGSGSGTDFTLTISSLQPEDFATYYCQQLKKPPYTFGQGTKVEIKR
11,binds,DOM.96 (protein) VH: EVQPLESGGGLVQPGGSLRLSCAASGFTFTDYKMLWVRQAPGKGLEWVSSISPSGRWTYYADSVKGRFTISRDNSKNTLYLQMNSLRAEDTAVYYCAKSLFEGSFDYWGQGTLVTVSS
12,binds,DOM.179 (protein) VH: EVQLLESGGGLVQPGGSLRLSCAASGFTFSAYDMMWVRQAPGKGLEWVSRISPQGQRTYYADSVKGRFTISRDNSKNTLYLQMNSLRAEDTAVYYCAKIRGQSRIPMRFDYWGQGTLV

# Target: T1, Recombinant human CD40L
# Assay: CD40L receptor binding assay: inhibition of CD40L (3 ng/ml) binding to coated CD40/Fc
row,binding,Binder
1,binds,"DOM8-24cys (other, VH dAb DOM8-24 with an engineered C-terminal cysteine (last Ser replaced by Cys); also called unmodified protein) VH: ASTEVQLLESGGGLVQPGGSLRLSCAASGFTFSNYQMAWVRQAPGKGLEWVSSITSEGGSTYYADSVKGRFTISRDNSKNTLYLQMNSLRAEDTAVYYCAKPGKNFDYWGQGTLVTVSC"

# Target: T1, Recombinant human CD40L
# Assay: CD40L receptor binding assay (RBA, ELISA): dAb titrated against 3 ng/ml CD40L binding to plate-coated CD40/Fc
row,binding,Binder
1,binds,"DOM8-24cys (other, VH dAb DOM8-24 with an engineered C-terminal cysteine (last Ser replaced by Cys); also called unmodified protein) VH: ASTEVQLLESGGGLVQPGGSLRLSCAASGFTFSNYQMAWVRQAPGKGLEWVSSITSEGGSTYYADSVKGRFTISRDNSKNTLYLQMNSLRAEDTAVYYCAKPGKNFDYWGQGTLVTVSC"
2,binds,"30K PEG-MAL PEGylated DOM8-24cys (other, 30K PEG-MAL on the engineered C-terminal cysteine, PEGylated monomer; also called 30K PEG DOM8-24cys) VH: ASTEVQLLESGGGLVQPGGSLRLSCAASGFTFSNYQMAWVRQAPGKGLEWVSSITSEGGSTYYADSVKGRFTISRDNSKNTLYLQMNSLRAEDTAVYYCAKPGKNFDYWGQGTLVTVSC"
3,binds,"40K PEG2-MAL PEGylated DOM8-24cys (other, 40K PEG2-MAL on the engineered C-terminal cysteine, PEGylated monomer; also called 40K PEG DOM8-24cys) VH: ASTEVQLLESGGGLVQPGGSLRLSCAASGFTFSNYQMAWVRQAPGKGLEWVSSITSEGGSTYYADSVKGRFTISRDNSKNTLYLQMNSLRAEDTAVYYCAKPGKNFDYWGQGTLVTVSC"

# — US20090297524A1 (DOMANTIS, published 2009)
